Assay results: paper PMC2787623
These are yes or no findings as the source states them, for the method shown. Some binding calls cover weakened binding; strength is not graded here.

Target: native enamel matrix proteins (amelogenin) from bovine (Bos taurus) (Bos taurus (endogenous in enamel of unerupted teeth)) (UniProt P02817)
Experiment: dynamic light scattering + atomic force microscopy; native enamel protein extracts of four species; diameters of supramolecular assemblies (nanospheres) compared; AFM in fluid on mica, 40 mM Tris pH 8.0; conditions of DLS not told

binding: binds
B1: native enamel matrix proteins (amelogenin) from bovine (Bos taurus) (protein, UniProt P02817 17-213)
chain: MPLPPHPGHPGYINFSYEVLTPLKWYQSMIRHPYPSYGYEPMGGWLHHQIIPVVSQQTPQNHALQPHHHIPMVPAQQPVVPQQPMMPVPGQHSMTPTQHHQPNLPLPAQQPFQPQSIQPQPHQPLQPHQPLQPMQPMQPLQPLQPLQPQPPVHPIQPLPPQPPLPPIFPMQPLPPMLPDLPLEAWPATDKTKREEVD
